# Assay results: article PMC7768192
# These are yes or no findings as the source states them, for the method shown. In cells and extracts the contact can be indirect. Some binding calls cover weakened binding; strength is not graded here. For some assays here: Tags and fused reporters may be left off the sequences shown.
# T1: GFP-FAM83A, Q86UY5
# T1 chain: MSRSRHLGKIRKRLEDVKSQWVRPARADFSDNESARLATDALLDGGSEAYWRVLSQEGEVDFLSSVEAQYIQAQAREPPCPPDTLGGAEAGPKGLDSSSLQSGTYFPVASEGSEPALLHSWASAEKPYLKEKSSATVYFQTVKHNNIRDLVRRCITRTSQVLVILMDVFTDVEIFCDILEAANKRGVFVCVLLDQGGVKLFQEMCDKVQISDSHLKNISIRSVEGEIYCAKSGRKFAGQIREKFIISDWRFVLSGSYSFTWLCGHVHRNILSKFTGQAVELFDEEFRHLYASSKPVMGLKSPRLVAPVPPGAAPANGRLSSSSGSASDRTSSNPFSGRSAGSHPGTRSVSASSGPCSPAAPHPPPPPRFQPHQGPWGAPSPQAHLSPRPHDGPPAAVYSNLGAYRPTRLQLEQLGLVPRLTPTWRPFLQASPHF
# B1: FAM83F^C497A (endogenous knock-in) (protein, UniProt Q8NEG4 1-500)
# chain: MAESQLNCLDEAHVNEKVTEAQAAFYYCERRRAALEALLGGGEQAYRERLKEEQLRDFLSSPERQALRAAWSPYEDAVPAANARGKSKAKAKAPAPAPAESGESLAYWPDRSDTEVPPLDLGWTDTGFYRGVSRVTLFTHPPKDEKAPHLKQVVRQMIQQAQKVIAVVMDLFTDGDIFQDIVDAACKRRVPVYIILDEAGVKYFLEMCQDLQLTDFRIRNIRVRSVTGVGFYMPMGRIKGTLSSRFLMVDGDKVATGSYRFTWSSSHVDRNLLLLLTGQNVEPFDTEFRELYAISEEVDLYRQLSLAGRVGLHYSSTVARKLINPKYALVSGCRHPPGEMMRWAARQQREAGGNPEGQEEGASGGESAWRLESFLKDLVTVEQVLPPVEPIPLGELSQKDGRMVSHMHRDLKPKSREAPSRNGMGEAARGEAAPARRFSSRLFSRRAKRPAAPNGMASSVSTETSEVEFLTGKRPNENSSADISGKTSPSSAKPSNAVIS
# B2: casein kinase 1α, P48729 1-337 (enzyme)
# chain: MASSSGSKAEFIVGGKYKLVRKIGSGSFGDIYLAINITNGEEVAVKLESQKARHPQLLYESKLYKILQGGVGIPHIRWYGQEKDYNVLVMDLLGPSLEDLFNFCSRRFTMKTVLMLADQMISRIEYVHTKNFIHRDIKPDNFLMGIGRHCNKLFLIDFGLAKKYRDNRTRQHIPYREDKNLTGTARYASINAHLGIEQSRRDDMESLGYVLMYFNRTSLPWQGLKAATKKQKYEKISEKKMSTPVEVLCKGFPAEFAMYLNYCRGLRFEEAPDYMYLRQLFRILFRTLNHQYDYTFDWTMLKQKAAQQAASSSGQGQQAQTPTGKQTDKTKSNMKGF
# Assays:
# [1] = target: casein kinase 1α (human (endogenous in U2OS, HCT116 and DLD-1)) (UniProt P48729); assay: co-IP; anti-CK1α antibody (1 μg) and Protein G Sepharose on extracts (1 mg protein) of HCT116 and DLD-1 cells (wild-type, FAM83F^-/-, FAM83F^C497A knock-in), untreated or treated with L-CM or Wnt3A-CM for 6 h; Western blot for FAM83F and FAM83G
# [2] = target: T1, GFP-FAM83A, Q86UY5; assay: co-IP; GFP-Trap agarose beads on lysates (1 mg protein) of U2OS Flp/Trx cells expressing GFP-tagged proteins (doxycycline 20 ng/ml, 24 h), 16 h at 4°C, Triton X-100 lysis buffer; Western blot for endogenous CK1α; conditions: remark: other sources report otherwise
binding [1],binding [2],Binder
binds,–,B1
–,no binding,B2
